Laboratory results from PMC11274521 (Cells, 2024).
Results are given in words; binding and its absence hold for the method and conditions named. For part of these data: Binding seen in cells or lysates may run through a third protein.

Protein sequences, listed by entry. Tags and fused reporters are not part of them. Residues count along the entry.
UniProt P02769, residues 25-607: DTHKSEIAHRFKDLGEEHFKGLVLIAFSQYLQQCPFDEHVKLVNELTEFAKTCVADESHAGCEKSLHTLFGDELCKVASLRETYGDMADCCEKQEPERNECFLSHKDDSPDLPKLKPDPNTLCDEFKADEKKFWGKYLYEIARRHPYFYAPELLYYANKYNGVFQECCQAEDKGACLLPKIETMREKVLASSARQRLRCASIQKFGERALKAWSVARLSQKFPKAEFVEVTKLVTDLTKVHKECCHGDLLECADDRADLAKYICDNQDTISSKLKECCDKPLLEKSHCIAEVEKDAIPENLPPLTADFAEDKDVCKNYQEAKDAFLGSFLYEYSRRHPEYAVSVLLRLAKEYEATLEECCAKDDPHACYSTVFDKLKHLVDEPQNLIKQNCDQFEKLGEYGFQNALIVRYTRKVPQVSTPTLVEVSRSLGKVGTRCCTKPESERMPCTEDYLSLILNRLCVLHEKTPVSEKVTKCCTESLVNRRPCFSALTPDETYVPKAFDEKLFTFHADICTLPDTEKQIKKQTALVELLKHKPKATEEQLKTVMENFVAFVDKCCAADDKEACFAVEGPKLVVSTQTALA
UniProt P02768, residues 25-609: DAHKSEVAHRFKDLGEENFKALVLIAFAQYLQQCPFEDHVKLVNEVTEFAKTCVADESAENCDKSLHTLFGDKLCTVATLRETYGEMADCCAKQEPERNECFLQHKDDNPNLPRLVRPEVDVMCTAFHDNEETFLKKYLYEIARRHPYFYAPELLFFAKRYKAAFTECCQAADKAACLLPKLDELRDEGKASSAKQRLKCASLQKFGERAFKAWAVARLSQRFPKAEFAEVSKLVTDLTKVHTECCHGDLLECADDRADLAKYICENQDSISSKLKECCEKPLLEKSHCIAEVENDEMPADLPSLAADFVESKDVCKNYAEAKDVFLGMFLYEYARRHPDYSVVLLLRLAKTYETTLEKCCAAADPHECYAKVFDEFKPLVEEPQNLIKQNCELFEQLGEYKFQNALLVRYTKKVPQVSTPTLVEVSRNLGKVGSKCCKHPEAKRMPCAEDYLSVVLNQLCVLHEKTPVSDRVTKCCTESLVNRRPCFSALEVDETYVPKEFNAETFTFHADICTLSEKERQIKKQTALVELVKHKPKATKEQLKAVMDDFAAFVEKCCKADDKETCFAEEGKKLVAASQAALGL

What was measured:
Biotin-L7N (human) [1] = biological target: T1, Biotin-L7N (human); assay: condition: 1 mM peptide, FBS equivalent to 0.03 mM albumin; pull-down; 1 mM biotinylated peptide with FBS (amount equivalent to 0.03 mM albumin) for 2 h at 4 °C, then Streptavidin resin for 1 h at room temperature; bound albumin detected by SDS-PAGE; only the target purified
T1 sequence (peptide, biotin-ahx at the N-terminus): REEKLFNVTSNLRINT

Biotin-L7N (human) [2] = biological target: T1, Biotin-L7N (human); assay: pull-down; 1 mM biotinylated peptide with 0.03 mM albumin (HSA or BSA) for 2 h at 4 °C, then Streptavidin resin for 1 h at room temperature; bound albumin detected by SDS-PAGE; both purified

| binding (Biotin-L7N (human) [1]) | Substance | binding (Biotin-L7N (human) [2]) |
| --- | --- | --- |
| no binding | bovine serum albumin (from UniProt P02769 25-607) | no binding (tested: 1 mM peptide, 0.03 mM albumin) |
|  | human serum albumin (from UniProt P02768 25-609) | no binding (tested: 1 mM peptide, 0.03 mM albumin) |
